Results deposited as PubChem BioAssay AID1508597 (Cure First, 2020).
Shown is one part, drawn at random, of about 2,100 deposited reagents. 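Calls flag viability under 80% in either arm, not effects specific to rucaparib; the reference for percent is not stated.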 Entries without a mark were called inactive. No sequences are given here. Not stated in the record: the 100% reference.

Assay: 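Knock-downs altering ovarian cancer cell survival with or without PARP inhibitor rucaparib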 (primary screen)
Cells: human ovarian carcinoma lines grown from tumours: OCI-P5x (papillary serous) and OCI-C5x (clear cell)
Reagent: siRNA pool against human genes, 1.25 pmol siRNA per well
Time to read-out: 72 h or 96 h, depending on the cell culture
Treatment: rucaparib 20 µM (about IC30) or vehicle, present until read-out
Measured: 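Luminescent ATP-based viability assay read 72 or 96 h after transfection, depending on culture, given as normalised percent viability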
Scale: viability, normalised: higher = more viable cells remaining
Rule for the call: 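a well counts as a hit if its normalised viability is under 80 percent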
Calls: active = viability under 80%; inactive = viability 80% or more

{"Gene": "GALK2 (galactokinase 2)", "PubChem SID": "SID405527362", "rucaparib or vehicle": "Rucaparib", "cell line": "OCI-C5x (clear cell)", "technical replicate": "1", "viability, normalised (%)": "32 (active)"}
{"Gene": "GALK2 (galactokinase 2)", "PubChem SID": "SID405527362", "rucaparib or vehicle": "Rucaparib", "cell line": "OCI-C5x (clear cell)", "technical replicate": "2", "viability, normalised (%)": "28.5 (active)"}
{"Gene": "GALK2 (galactokinase 2)", "PubChem SID": "SID405527362", "rucaparib or vehicle": "Rucaparib", "cell line": "OCI-C5x (clear cell)", "technical replicate": "3", "viability, normalised (%)": "35.1 (active)"}
{"Gene": "GALK2 (galactokinase 2)", "PubChem SID": "SID405527362", "rucaparib or vehicle": "Rucaparib", "cell line": "OCI-P5x (serous)", "technical replicate": "1", "viability, normalised (%)": "71 (active)"}
{"Gene": "GALK2 (galactokinase 2)", "PubChem SID": "SID405527362", "rucaparib or vehicle": "Rucaparib", "cell line": "OCI-P5x (serous)", "technical replicate": "2", "viability, normalised (%)": 91.6}
{"Gene": "GALK2 (galactokinase 2)", "PubChem SID": "SID405527362", "rucaparib or vehicle": "Rucaparib", "cell line": "OCI-P5x (serous)", "technical replicate": "3", "viability, normalised (%)": "72.2 (active)"}
{"Gene": "GALK2 (galactokinase 2)", "PubChem SID": "SID405527362", "rucaparib or vehicle": "Vehicle", "cell line": "OCI-C5x (clear cell)", "technical replicate": "1", "viability, normalised (%)": "48.1 (active)"}
{"Gene": "GALK2 (galactokinase 2)", "PubChem SID": "SID405527362", "rucaparib or vehicle": "Vehicle", "cell line": "OCI-C5x (clear cell)", "technical replicate": "2", "viability, normalised (%)": "71.2 (active)"}
{"Gene": "GALK2 (galactokinase 2)", "PubChem SID": "SID405527362", "rucaparib or vehicle": "Vehicle", "cell line": "OCI-C5x (clear cell)", "technical replicate": "3", "viability, normalised (%)": "56.5 (active)"}
{"Gene": "GALK2 (galactokinase 2)", "PubChem SID": "SID405527362", "rucaparib or vehicle": "Vehicle", "cell line": "OCI-P5x (serous)", "technical replicate": "1", "viability, normalised (%)": "65.3 (active)"}
{"Gene": "GALK2 (galactokinase 2)", "PubChem SID": "SID405527362", "rucaparib or vehicle": "Vehicle", "cell line": "OCI-P5x (serous)", "technical replicate": "2", "viability, normalised (%)": "73.4 (active)"}
{"Gene": "GALK2 (galactokinase 2)", "PubChem SID": "SID405527362", "rucaparib or vehicle": "Vehicle", "cell line": "OCI-P5x (serous)", "technical replicate": "3", "viability, normalised (%)": 82.2}
